PubChem BioAssay AID1508597, Cure First, 2020
This is a random part of the about 2,100 reagents, under one of the conditions tested. 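Calls flag viability under 80% in either arm, not effects specific to rucaparib; the reference for percent is not stated.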 Some reagents were tested in more than one well and are listed for each. Reagent sequences are not shown. Not given: the 100% reference.

- Test: 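Survival screen with siRNA in ovarian cancer cells derived from patients, with or without rucaparib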 (primary screen)
- Cell system: human ovarian carcinoma lines grown from tumours: OCI-P5x (papillary serous) and OCI-C5x (clear cell)
- Reagent: siRNA pool against human genes, 1.25 pmol siRNA per well
- Timing: 72 h or 96 h, depending on the cell culture
- Challenge: rucaparib 20 µM (about IC30) or vehicle, present until read-out
- Rucaparib or vehicle: Vehicle
- Cell line: OCI-C5x (clear cell)
- Read-out: 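ATP luminescence measured at 72 or 96 h according to the culture, then normalised and expressed as percent viability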
- Direction: viability, normalised: higher = more viable cells remaining
- Call rule: 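a well counts as a hit if its normalised viability is under 80 percent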
- Calls: active = viability under 80%; inactive = viability 80% or more

target gene	technical replicate	viability, normalised (%)	call
MAP3K19 (mitogen-activated protein kinase kinase kinase 19)	1	95.8	inactive
MAP3K19 (mitogen-activated protein kinase kinase kinase 19)	2	58.3	active
MAP3K19 (mitogen-activated protein kinase kinase kinase 19)	3	55.9	active
SETDB2 (SET domain bifurcated histone lysine methyltransferase 2)	1	32.7	active
SETDB2 (SET domain bifurcated histone lysine methyltransferase 2)	2	25.1	active
SETDB2 (SET domain bifurcated histone lysine methyltransferase 2)	3	30.8	active
WNK2 (WNK lysine deficient protein kinase 2)	1	66.4	active
WNK2 (WNK lysine deficient protein kinase 2)	2	67	active
WNK2 (WNK lysine deficient protein kinase 2)	3	62.6	active
PRKG1 (protein kinase cGMP-dependent 1)	1	55.3	active
PRKG1 (protein kinase cGMP-dependent 1)	2	53.8	active
PRKG1 (protein kinase cGMP-dependent 1)	3	68.3	active
MYB (MYB proto-oncogene, transcription factor)	1	24.5	active
MYB (MYB proto-oncogene, transcription factor)	2	30.6	active
MYB (MYB proto-oncogene, transcription factor)	3	31.8	active
RAG1 (recombination activating 1)	1	32.8	active
RAG1 (recombination activating 1)	2	28.1	active
RAG1 (recombination activating 1)	3	45.2	active
MORC4 (MORC family CW-type zinc finger 4)	1	58.3	active
MORC4 (MORC family CW-type zinc finger 4)	2	65.9	active
MORC4 (MORC family CW-type zinc finger 4)	3	59.6	active
HERC2 (HECT and RLD domain containing E3 ubiquitin protein ligase 2)	1	99.5	inactive
HERC2 (HECT and RLD domain containing E3 ubiquitin protein ligase 2)	1	58.6	active
HERC2 (HECT and RLD domain containing E3 ubiquitin protein ligase 2)	2	90.9	inactive
HERC2 (HECT and RLD domain containing E3 ubiquitin protein ligase 2)	2	42	active
HERC2 (HECT and RLD domain containing E3 ubiquitin protein ligase 2)	3	52.7	active
HERC2 (HECT and RLD domain containing E3 ubiquitin protein ligase 2)	3	92.4	inactive
